Measurements from the supplement of paper PMC3334620.
In all, about 33,000 sequences were measured (“E-score (-0.5 to 0.5)”: median about -0.0014, highest 2% from about 0.25 on). Some of the results follow.

Each sequence was assayed against T1, Cad1 (UniProt P24813) (assay: PBM E-score (8-mer binding enrichment) (E-score (-0.5 to 0.5)); higher = stronger / more preferred TF binding). Conditions: protein concentration: 100 nM; construct: GST-full length.
T1 sequence: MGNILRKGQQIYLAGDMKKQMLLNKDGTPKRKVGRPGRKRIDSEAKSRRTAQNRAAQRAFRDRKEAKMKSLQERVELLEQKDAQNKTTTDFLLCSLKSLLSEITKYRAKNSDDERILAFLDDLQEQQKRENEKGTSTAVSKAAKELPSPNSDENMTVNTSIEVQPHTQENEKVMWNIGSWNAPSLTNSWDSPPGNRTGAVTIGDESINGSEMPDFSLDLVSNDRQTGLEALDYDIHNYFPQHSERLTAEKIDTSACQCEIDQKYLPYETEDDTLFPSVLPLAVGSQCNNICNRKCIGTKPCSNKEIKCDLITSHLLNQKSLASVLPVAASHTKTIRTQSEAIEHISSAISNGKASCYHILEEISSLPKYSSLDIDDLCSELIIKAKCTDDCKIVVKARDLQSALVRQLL
In short: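 E-scores (a modified Wilcoxon-Mann-Whitney statistic) were assigned by the Universal PBM Analysis Suite to every ungapped eight-base word pooled with its reverse complement. The input came from universal all-10-mer Agilent arrays made double-stranded by primer extension and probed with GST-tagged yeast transcription factors at about 100-200 nM. Fluorescent anti-GST detected bound protein, and masliner normalised the scans.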

Sequence	PBM E-score
AACATTGA	0.0877
CCACTCGA	-0.00049
CGCGGGAC	0.171
CATGGCAC	0.0314
CCGGTTAG	0.0658
CGGCGCAG	-0.0913
ACCCTCAT	-0.177
AGTACCAC	-0.0358
GCTAGTGA	-0.00056
GCCGATAC	-0.157
CGAAATGC	-0.1
CACGCATC	-0.0605
AACGAGTG	0.0298
TAACAGGA	0.0656
ATACTCCG	0.155
TACTGTCA	0.106
AGGATTCA	-0.0821
ACCCCCCT	-0.463
CAACAATA	0.106
CGCCTAAC	0.0465
CTGGAGTC	-0.195
CTCCAAGA	-0.082
CTACCGAA	-0.051
CGTCTCTA	-0.211
ATATGCTA	0.0777

Quoted from above for reference:
Sequence	PBM E-score
CGCGGGAC	0.171
CATGGCAC	0.0314
CCGGTTAG	0.0658

Later entries:

Sequence	PBM E-score
GCAAATAA	0.207
AACCGTCA	-0.101
CTGGCGAC	-0.0775
AACCTTCG	0.113
TTGTCAAA	0.105
GTACTCAC	0.158
ATTCCCAG	0.00162
CCTTCAAA	0.106
AAGTAAAG	-0.0536
TAGGTAGA	0.0382
CTCCGATA	-0.00157
AGTTGTAA	0.0382
ATTTTATA	0.221
CCGGTGAC	-0.154
ACTAGCAC	-0.0277
ATGGTGAG	-0.163
GACCAGTC	-0.12
AGGACAGA	-0.217
GCTTCTAC	-0.0294
AGCAATGG	-0.00886
CTTGAATA	0.118
ACGCTGCT	-0.113
GAACTAGA	0.0545
GGAGGAGA	-0.268
CAAATTGC	0.153

Sequence	PBM E-score
CCTCCCAA	-0.093
GTTTTGAA	0.115
GGCGGTAA	0.045
ATTAGGAG	0.00943
ACAGTGAT	0.0824
CCGATAAC	0.093
AATGCGGG	0.0953
CAGACATC	0.137
ATGGAAGC	-0.144
GGCGTACC	-0.0821
CCAAGTGA	-0.147
ATCGCACC	-0.119
AAGGTTCC	-0.0332
CGGAAAGC	0.12
CATAGATA	-0.00913
TTCGCGAA	0.343
TCGATACA	0.225
AAACTTAG	-0.0664
ATCTGCCC	-0.00876
GTATTAAA	0.0777
CAGGCTGC	-0.0968
CCTAACAA	0.132
CATCGCTC	-0.187
GGGTCCGA	-0.21
TAACGGTA	0.048

Sequence	PBM E-score
TACTTTGA	-0.0264
GGATCGCA	0.00149
CCAGGAGA	-0.0506
CATGGAGA	-0.0214
CCTGATAA	0.0917
CCCCTAAA	-0.326
GGCGCTGA	-0.0921
ACATGTCG	0.0503
ATCATGGC	0.0916
CCGCCACG	-0.145
CACCGTTC	-0.0379
ACTATGGG	-0.127
ACTTGGTC	0.0646
GTTTTCAA	0.203
GGAGCATA	0.00116
ACTGCCAC	-0.11
AAGCATAC	0.0338
AGTCGTCC	-0.0982
CATACAGG	0.0745
AGATGTAA	0.117
CCCCTGAG	-0.15
ATATCAAG	0.251
ATAAAGCA	0.132
CGGTCCAA	-0.108
CTATCATC	0.063

Sequence	PBM E-score
ACTGAGGG	-0.241
CGTGATCA	0.123
AGGAACTA	-0.0396
ATGCCAGG	-0.0794
ATAGGAAG	-0.0607
TCCACGGA	0.282
ATATGCCC	-0.113
AATCGTTA	0.0983
ATACCTAC	-0.0299
CCAGCTCC	-0.198
GAATTGCA	0.00529
AGACTGCG	-0.0453
ACTCGAAC	0.0268
GATGACCC	-0.0103
AAGTTTAC	0.139
TATTCTGA	-0.0228
CTATGGAG	-0.212
ACACCGGG	-0.147
AGACTGGG	-0.134
GCTTGAGA	-0.126
AGTACGGC	0.0355
ATAGTTTA	0.0246
CTAGACGA	-0.147
CAAGGCGC	-0.00691
AAAATGCG	0.131

Sequence	PBM E-score
GTCAATGA	-0.119
CTGAGATA	0.0964
ACTGAGCT	-0.0831
AAAGACTT	-0.101
GGGTGCAA	0.0504
TAAAGATA	0.156
GGGAAAGA	-0.169
ACGCTAGA	-0.149
ACCGAGGA	-0.0309
TAGTGCCA	-0.0263
CTTCACTA	-0.0405
ACACCGGC	0.0574
CGACTGTA	-0.275
TATCCTAA	0.0621
AAGCAGTC	-0.175
TAGTAAAA	0.135
ATCAAGTA	0.0178
ACAATCTG	0.0274
CCATACGA	-0.0587
AGTATGTA	-0.145
AGCTGGAC	0.00162
AAAACTAC	0.0885
GACTCTGC	-0.0916
GGAATGTA	0.111
CTACCTAA	0.0375

Sequence	PBM E-score
AACAGGAT	-0.148
CTTTGGCA	-0.304
GGGCCAAC	-0.225
AAAAGGAA	-0.138
ACCGGACC	-0.00801
CCAATGTC	-0.0465
CATGTGAA	-0.0545
CATGGCTC	-0.0206
GGTCAAAA	0.124
CCCAGGGC	-0.287
GAAGACTA	0.0459
GATGGCCC	-0.218
GATAACAA	0.165
ACTAACGG	0.0812
ATGGCGTA	-0.108
GCTACTTA	-0.191
CTACTCCA	-0.143
GACTGAGA	0.0552
ACTCGCCT	-0.181
CATGGTGA	-0.0761
GCGTCCCC	-0.27
AGGGTGGC	-0.0635
CGCTCGAG	0.159
CTCCACGC	-0.114
CCCTAGTA	-0.0741

Sequence	PBM E-score
ACCGACCT	-0.122
AGATGCTC	0.054
CAGTGGCG	-0.0554
GTAGGCCA	-0.024
CGTCCCAG	-0.129
ACGTGTTG	0.134
ACCGATGG	-0.143
AGCTATAC	-0.0476
GAAGTTGC	-0.255
CGACATAA	0.222
CTCGCAGC	0.0776
GAGGGATC	-0.185
GAAGTTTA	0.138
AGTCGGCG	0.0599
ACTCGTGC	-0.112
TAAGCAGA	0.143
CCAACGCA	0.0411
ACCTTAGT	-0.0801
CCCAACGA	0.0341
GACGACTC	-0.102
AGGACTCA	-0.0986
AACCTGAC	0.0197
AGACCTCA	-0.117
AGCTGAAA	0.135
AATGTCCT	-0.0961

Sequence	PBM E-score
ATGGCTCA	-0.0443
AGGTACTC	-0.0795
ACCTGCGG	-0.0391
CACGATCA	0.0828
CGCATGCC	0.252
TCATCGGA	0.232
TCGGGGCA	-0.258
ACATTTTC	0.177
GACCTCCC	-0.247
CGCTAACC	-0.0668
TAGGATAA	0.0906
ATCGTCAC	0.148
GTGCTTAA	0.155
CCAGAAGG	-0.0726
ACAACTAA	0.246
ACTGACAA	0.264
GCAAGTCA	-0.0574
GGACATGA	-0.0277
ATCCTAAA	-0.12
ACCTAATA	0.137
AAGACGCA	-0.00656
AGTTTTAG	0.0658
GTTACTTA	-0.0383
GCGCCCGA	0.0517
TAGCGACA	0.0174

Sequence	PBM E-score
CACCAGAG	-0.111
AGCTCCAC	-0.0867
AAATAAGG	0.0586
GGTATAAC	-0.183
ATCGGCGC	0.0663
ACGCCTCA	-0.115
GCATTAAC	0.0922
AGGAAGAC	-0.243
ACACGATG	-0.0224
TAGATGGA	-0.181
GAGTCCGC	-0.377
CACGGAAA	0.13
ATCACAAT	0.21
TCCACGCA	0.028
ACGTGACG	0.0862
CTAGCAAC	0.0306
GGACGCAC	0.0124
GTAGAATA	0.106
CAGCTCGG	0.00696
ACACGAAT	0.0874
GTATCGGA	-0.00518
ACTACCGA	-0.25
ATTCCGCG	0.185
AATATGAA	-0.00421
CTGCCTGA	0.143

Sequence	PBM E-score
AAGCCAGA	-0.0133
AACCTAAT	-0.0437
CCTCCTAG	-0.099
AGGACTGG	-0.18
GTGACATA	0.141
CTCCAGAG	-0.14
GGTCGCGA	0.273
AGGGTGCC	-0.285
ATAGTCAA	0.0661
ACCAAGGG	-0.0668
AATTCAAA	0.0368
GGGTGTAA	0.0367
CACAAAGG	-0.0708
AGCAGACA	-0.0116
ACGGACAT	0.177
CCCACTGA	-0.211
CCCAGTCC	-0.134
CCACAGCC	-0.135
GAATAGTA	0.144
CGTATCCA	-0.00514
GAAATGTC	-0.0459
AAGATTGA	-0.0377
AGTAAATC	0.146
GGATAAGA	0.0616
AACACGCC	0.0503

3 entries from above, as a markdown table.

| Sequence | PBM E-score |
| --- | --- |
| CCACAGCC | -0.135 |
| GAATAGTA | 0.144 |
| CGTATCCA | -0.00514 |

(next part)

Sequence	PBM E-score
CACTCCCG	-0.139
CGGACAAG	0.219
CAAACCCA	0.114
GAGCGACC	-0.0877
CTAAGAAG	0.0716
ATCGTCAA	0.111
CACCTTAG	-0.05
ATCGTTGA	0.101
AGCATTAG	0.0185
AAACGGTA	0.0684
CTCTCTGC	-0.139
ACCCACGT	0.0506
GCTCTTTA	-0.0317
ACATTTAT	0.0966
ATGACGAG	-0.07
ATAAATGG	0.0507
CGGGATTA	0.18
ACGGACTC	-0.0126
GCAACCCC	-0.306
ACTGAGAA	-0.0562
TGTGTTAA	0.19
AGTGCGAC	-0.0305
CGAAAGAA	0.00206
AGCGAGGG	-0.271
ACCCGAGG	-0.0532

3 entries drawn at random from those above:
Sequence	PBM E-score
AGACTGGG	-0.134
CGGAAAGC	0.12
CAGCTCGG	0.00696

(listing goes on)

Sequence	PBM E-score
TACTGGGA	-0.0182
CTCGTTGC	0.11
CCATTATA	0.134
ATGGTTTA	-0.004
GCAGGAAC	0.0566
CTATGACA	0.17
CGCGTTCA	0.225
ATACATGC	-0.151
CATGCCGG	0.138
GTACAACA	0.116
GTACACAA	0.143
AACAGAAA	0.0872
ACGATGGC	0.0456
CGTCTTGA	0.153
AATTATCC	0.0534
ACATGGTA	0.00102
ATTCATGA	0.0482
CCACCGAA	-0.0212
ATCAAAGG	0.129
ATGAGACC	0.0675
ACGCCATC	0.00377
CAAGGGCA	-0.123
GCGGGCCA	-0.0258
ATGGCCAA	-0.046
GTGTAATA	0.194

Sequence	PBM E-score
TACATTAA	0.26
AGATTTAG	0.00099
CTCTTGTC	-0.0328
AATTTGCG	0.173
GCTGTACA	0.0743
GAACATTC	0.242
ATGTGGGA	-0.0628
CTTGACAA	0.102
GAGGCGAA	-0.00703
CGAGGGTC	-0.267
ACATTAGG	-0.0351
GGCCTGAC	0.00354
ACTGGAAA	0.0386
CACTGGAA	-0.0819
GACAAGCA	-0.021
GAGCGAGA	0.18
ATTCTTTC	-0.0222
AAGCTCGT	-0.0206
CGAGCCTC	-0.133
